Binding data for two substances are collected here from publication PMC5082686.

Amino acid sequences for entries named in this document (tags omitted).
UniProt Q9R117: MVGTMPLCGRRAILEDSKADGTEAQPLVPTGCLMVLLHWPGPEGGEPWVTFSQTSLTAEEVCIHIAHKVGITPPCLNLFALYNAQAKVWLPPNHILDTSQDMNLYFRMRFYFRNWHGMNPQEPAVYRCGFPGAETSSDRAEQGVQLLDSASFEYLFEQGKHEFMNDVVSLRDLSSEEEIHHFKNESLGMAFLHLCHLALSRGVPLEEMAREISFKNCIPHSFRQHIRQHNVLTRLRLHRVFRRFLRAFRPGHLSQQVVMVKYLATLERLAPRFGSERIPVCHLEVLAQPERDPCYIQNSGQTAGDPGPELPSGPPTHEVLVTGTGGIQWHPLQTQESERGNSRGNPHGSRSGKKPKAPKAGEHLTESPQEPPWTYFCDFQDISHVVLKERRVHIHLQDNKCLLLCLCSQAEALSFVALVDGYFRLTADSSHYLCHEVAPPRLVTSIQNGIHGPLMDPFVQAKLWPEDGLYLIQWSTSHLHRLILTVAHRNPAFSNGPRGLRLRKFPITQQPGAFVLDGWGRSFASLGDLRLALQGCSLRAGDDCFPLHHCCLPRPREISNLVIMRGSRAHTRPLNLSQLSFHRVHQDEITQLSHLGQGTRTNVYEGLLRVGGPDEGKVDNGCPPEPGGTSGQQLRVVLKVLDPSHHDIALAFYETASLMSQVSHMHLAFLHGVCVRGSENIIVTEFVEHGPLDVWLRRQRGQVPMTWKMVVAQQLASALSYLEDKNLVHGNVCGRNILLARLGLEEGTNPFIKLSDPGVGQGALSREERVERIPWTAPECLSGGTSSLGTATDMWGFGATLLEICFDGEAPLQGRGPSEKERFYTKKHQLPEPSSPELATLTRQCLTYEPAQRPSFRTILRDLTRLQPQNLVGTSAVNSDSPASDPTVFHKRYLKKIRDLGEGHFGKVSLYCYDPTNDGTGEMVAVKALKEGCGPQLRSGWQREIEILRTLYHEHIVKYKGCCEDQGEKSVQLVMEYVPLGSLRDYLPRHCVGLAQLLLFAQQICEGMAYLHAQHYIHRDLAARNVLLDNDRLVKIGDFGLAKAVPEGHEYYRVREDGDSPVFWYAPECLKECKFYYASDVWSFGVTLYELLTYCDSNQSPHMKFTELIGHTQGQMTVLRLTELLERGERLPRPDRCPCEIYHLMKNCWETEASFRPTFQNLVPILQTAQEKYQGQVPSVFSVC
UniProt O35864: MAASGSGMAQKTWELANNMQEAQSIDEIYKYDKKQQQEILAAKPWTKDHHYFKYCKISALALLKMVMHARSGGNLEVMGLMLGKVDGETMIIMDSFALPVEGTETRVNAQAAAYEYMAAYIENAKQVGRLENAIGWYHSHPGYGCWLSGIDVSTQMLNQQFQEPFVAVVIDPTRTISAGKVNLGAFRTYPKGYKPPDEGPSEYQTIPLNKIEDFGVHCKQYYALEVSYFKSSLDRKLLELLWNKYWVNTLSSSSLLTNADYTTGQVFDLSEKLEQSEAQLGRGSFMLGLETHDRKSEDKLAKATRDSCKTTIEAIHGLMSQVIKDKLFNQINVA
UniProt Q6IYF8: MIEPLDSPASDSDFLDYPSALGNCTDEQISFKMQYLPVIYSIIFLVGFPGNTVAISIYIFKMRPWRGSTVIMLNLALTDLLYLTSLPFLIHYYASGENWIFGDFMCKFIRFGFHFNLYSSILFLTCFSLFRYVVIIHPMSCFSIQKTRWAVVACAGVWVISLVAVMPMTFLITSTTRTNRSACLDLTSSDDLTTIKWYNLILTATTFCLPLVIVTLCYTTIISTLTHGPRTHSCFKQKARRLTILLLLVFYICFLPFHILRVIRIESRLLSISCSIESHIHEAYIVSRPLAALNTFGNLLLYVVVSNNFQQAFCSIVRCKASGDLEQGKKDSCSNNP

In assay [1] the target is tyrosine kinase 2 (TYK2), endogenous (mouse (endogenous in the heart, by the legend; the text says isolated cardiomyocytes)) (UniProt Q9R117). Kind of assay: co-IP; RIPA protein extracts pre-cleared with Protein G/A agarose for 2 h at room temperature, incubated overnight with 5 ug of indicated antibody and 20 ul Protein G/A agarose; beads washed three times with RIPA buffer; Western blot. (A western blot detects proteins with antibodies after separation by electrophoresis.)

For assay [2], the target named is COP9 signalosome complex subunit 5 (CSN5), endogenous (mouse (endogenous in mouse heart extracts, by the legend; the text says isolated cardiomyocytes)) (UniProt O35864). Described as above.

No constants are given. Whether binding was seen depends on the method and setting. Binding seen in cells or lysates may run through a third protein. Some results given as binding are weak or reduced against the parent protein; the word gives no strength.

In the case of “COP9 signalosome complex subunit 5 (CSN5), endogenous (from UniProt O35864 1-334)”, the binding entry in assay [1] is “binds”.
With “oxoglutarate receptor 1 (OXGR1), endogenous (from UniProt Q6IYF8 1-337)”, in assay [2], the binding result is recorded as “binds”.
